According to PubChem BioAssay AID2685 (National Center for Advancing Translational Sciences (NCATS), 2010):
About 2,100 (0.66%) of roughly 320,000 compounds were called active. Inconclusive results, whose numbers are uncertain, are shown with a selection of clear calls. Calls come from the whole dose curve; as a rule, active = well fitted inhibition curve with a large enough effect in the signal ratio, with a control signal flat (not every such curve was filed as active); inconclusive = small, poorly fitted or top-dose-only effect, or effect the other way, or a change in a side signal; inactive = flat fitted curve, though single readings scatter; the % refers to the signal ratio. Potencies of inconclusive entries are doubtful fits and often do not repeat.

experiment: qHTS Assay for Lipid Storage Modulators in Drosophila S3 Cells; details: BODIPY lipid droplet fluorescence, 18-24 h, cells fed with added oleic acid; lipid storage change, negative = inhibition: at 46.1 µM (top of the series) unless noted
Method in brief: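 Drosophila S3 cells loaded with oleic acid (400 uM, as added) and compounds at several concentrations; lipid droplets imaged by 488-nm laser-scanning cytometry, 500–530 nm intensity and object ratio to cell channel. Percent activity normalized to 20 uM Triacsin C.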
% is set by controls: 0 for no effect and ±100 for the full control effect; potency is the fitted concentration of half-maximal effect.

SMILES | lipid storage change, negative = inhibition | Potency
CCOc1nc(-c2ccccc2)c2cc(C)ccc2n1 | inconclusive: 39% | –
C#Cc1ccc(CN2CCN(CCc3ccccc3)C(CCO)C2)cc1 (stereo not drawn) | – | inconclusive: 29.1 µM [activator, single point]
Cc1ccc(OCC(O)CN2CCOCC2)c(C)c1 (stereo not drawn) | – | inconclusive: 20.6 µM [activator, single point]
COc1ccc(S(=O)(=O)NC(C)C(=O)NCc2ccco2)cc1OC (stereo not drawn) | – | inconclusive: 29.1 µM [activator, single point]
O=C(COC(=O)CCS(=O)(=O)c1ccccc1)Nc1ccccc1 | – | inconclusive: 29.1 µM [activator, single point]
CC(C)CCOP(=O)(c1ccc(N(C)C)cc1)C(O)c1ccc(N(C)C)cc1 (stereo not drawn) | inconclusive: 249% | –
Cc1ccccc1NC(=O)c1ccc(S(=O)(=O)N2CCCC2)cc1 | – | inconclusive: 0.0041 µM [activator, full curve, poor fit]
O=C(C1CCC(CNS(=O)(=O)c2cccs2)CC1)N1CCN(c2ccc(Cl)cc2)CC1 (stereo not drawn) | inconclusive: -58.8% | –
CN(C)c1ccc(CNc2ncnc3sccc23)cc1 | – | inconclusive: 3.66 µM [activator, full curve]
C=CCC(NCc1ccco1)c1ccc(OC)cc1OC (stereo not drawn) | – | inconclusive: 3.26 µM [falling, single point]
Cc1cc(N=Nc2c(O)c3ccccc3[nH]c2=O)ccc1N=Nc1ccc(C(=O)N(C)C)cc1 | – | active: 20.6 µM
C/C(=N/NC(=O)c1ccc2c(c1)OCO2)c1cccc(NC(=O)C(C)(C)C)c1 | – | inconclusive: 0.13 µM [activator, full curve, poor fit]
Cc1ccc(SCC(=O)Nc2nnc(-c3ccco3)o2)cc1 | inconclusive: 29.7% | –
COc1ccc(C(=O)CSc2nnc(-c3ccco3)c(-c3ccco3)n2)cc1 | inconclusive: -18.2% | –
COCCN(C(=O)C1=COCCO1)c1c(N)n(CC(C)C)c(=O)[nH]c1=O | – | inconclusive: 23.1 µM [activator, single point]
COc1ccc(NC(C)=O)cc1NC(=O)CSc1nnc(C2CCCCC2)n1N | – | inconclusive: 29.1 µM [falling, single point]
O=C(COC(=O)c1cccs1)NCc1ccc2c(c1)OCO2 | inconclusive: 6.66% | –
COc1nccc(C(F)(F)F)c1C(=O)NC(=O)Nc1ccccc1 | inconclusive: 8.19% | –
Cc1noc(NS(=O)(=O)c2ccc(NC(=O)C(CC(C)C)N3C(=O)c4ccccc4C3=O)cc2)c1C (stereo not drawn) | inconclusive: -13.2% | –
CSc1ccccc1-c1nnc(-c2ccc(Cl)c(Cl)c2)o1 | inconclusive: 31% | –
O=C(N/N=C/c1ccc([N+](=O)[O-])cc1)c1ccc(NS(=O)(=O)c2cccs2)cc1 | inconclusive: -5.61% | –
Cc1cc(Sc2nc(N)ncc2[N+](=O)[O-])ncn1 | – | inconclusive: 29.1 µM [cytotoxic, single point]
O=C(COC(=O)CNC(=O)c1cccs1)Nc1ccc(C(F)(F)F)cc1[N+](=O)[O-] | inconclusive | –
COc1ccc(C)cc1NC(=O)C1C2C=CC(C2)C1C(=O)O (stereo not drawn) | – | inconclusive: 0.92 µM [falling, full curve, poor fit]
O=C(CCl)Nc1c(C(=O)Nc2ccc3c(c2)OCCO3)oc2ccccc12 | – | inconclusive: 1.16 µM [falling, full curve, poor fit]

Four compounds out of the list, sorted by formula weight, falling:
SMILES | lipid storage change, negative = inhibition | Potency
O=C(C1CCC(CNS(=O)(=O)c2cccs2)CC1)N1CCN(c2ccc(Cl)cc2)CC1 (stereo not drawn) | inconclusive: -58.8% | –
O=C(COC(=O)CNC(=O)c1cccs1)Nc1ccc(C(F)(F)F)cc1[N+](=O)[O-] | inconclusive | –
COc1ccc(S(=O)(=O)NC(C)C(=O)NCc2ccco2)cc1OC (stereo not drawn) | – | inconclusive: 29.1 µM [activator, single point]
COc1nccc(C(F)(F)F)c1C(=O)NC(=O)Nc1ccccc1 | inconclusive: 8.19% | –

Continued:

SMILES | lipid storage change, negative = inhibition | Potency
COC(=O)c1ccsc1NC(=O)C1=COCCO1 | inconclusive: 54.4% | –
Cc1cc(=O)n2nc(N3CCC(C(=O)NCc4cccc(Cl)c4)CC3)sc2n1 | inconclusive: -23.3% | –
CCCCCCCNC(=O)C1(CC2CC(c3ccc(Cl)cc3)=NO2)CCN(C(=O)OC(C)(C)C)CC1 (stereo not drawn) | – | inconclusive: 2.06 µM [falling, partial curve, poor fit]
COc1ccccc1C(=O)N/C(=C\c1cn(S(=O)(=O)N(C)C)c2ccccc12)C(=O)N1CCOCC1 | – | inconclusive: 3.26 µM [activator, single point]
COc1ccc(C(=O)N2CCN(c3nnnn3-c3ccccc3)CC2)cc1OC | – | inconclusive: 1.16 µM [activator, single point]
Cc1ccc(NC(=O)N2CCC(C(=O)NCc3ccc(F)cc3)CC2)cc1 | inconclusive: -3.74% | –
COc1ccc(-c2coc3c(C)c4oc(=O)c(CC(=O)O)c(C)c4cc23)cc1 | inconclusive: 55.6% | –
COc1ccc2c(c1OC)C[N+]1([O-])CCc3cc4c(cc3C1C2)OCO4 (stereo not drawn) | inconclusive: 19.6% | –
O=C(CN1CCC(O)(c2ccc3c(c2)OCO3)CC1)OC1CCCCC1 | inconclusive: 18.2% | –
CCCn1c(N)c(C(=O)CSc2nc3ncc(Cl)cc3[nH]2)c(=O)n(C)c1=O | – | inconclusive: 0.184 µM [falling, full curve, poor fit]
CC(C)(C)C(=O)O/N=C(\N)c1ccc([N+](=O)[O-])s1 | inconclusive: -13.2% | –
O=C1CN2NC(=S)N(c3ccc(Cl)cc3)C2=CN1c1ccc(Cl)cc1 | – | inconclusive: 2.91 µM [falling, full curve, poor fit]
CCOC(=O)C1(CC2CC2)CCN(C(=O)c2ocnc2C)CC1 | inactive | –
CC(=O)C1=C(O)CC(c2ccccc2)CC1=NCCc1c(C)[nH]c2ccc(C)cc12 (stereo not drawn) | inconclusive: 32.4% | –
Cc1ccc(CN(CC(=O)NCCc2ccccc2)C(=O)c2csnn2)cc1 | – | inconclusive: 0.13 µM [falling, full curve, poor fit]
Cc1sc2ncn(CC(=O)Nc3ccccc3F)c(=O)c2c1-c1ccccc1 | inconclusive: 40.6% | –
CC(Oc1ccc(Br)cc1)C(=O)N1CCC(C(N)=O)CC1 (stereo not drawn) | – | inconclusive: 5.17 µM [falling, single point]
CCN1CCN(C(=O)CN(c2ccccc2C)S(C)(=O)=O)CC1 | inconclusive: -2.09% | –
CCC1CCCCN1Cc1nc2c(c(=O)n(C)c(=O)n2C)n1CCC(C)C (stereo not drawn) | inconclusive: 36% | –
Cn1cc(Br)c(C(=O)Nc2nccs2)n1 | inconclusive: 0.704% | –
Cc1coc2cc3oc(=O)c(CCC(=O)NCCCN4CCCC4=O)c(C)c3cc12 | inconclusive: 2.11% | –
CCOC(=O)c1ccc(NC(=O)CSc2n[nH]c(-c3ccncc3)n2)cc1 | – | inconclusive: 13 µM [activator, partial curve]
Cc1ccc(C(=O)N(Cc2ccc3c(c2)OCO3)Cc2nc3ccccc3c(=O)[nH]2)cc1 | inconclusive: -15.1% | –
Cc1oc2ccc(OCc3ccc(Cl)cc3)cc2c1C(=O)O | inconclusive: 9.35% | –
CC(=O)c1sc(NC(=O)CCN2C(=O)c3ccccc3C2=O)nc1C | inconclusive: -15.8% [cytotoxic] | –

SMILES | lipid storage change, negative = inhibition | Potency
CC1(C)CC(=O)C2=C(C1)N=C1SCCC(=O)N1C2c1ccccc1 (stereo not drawn) | inactive | –
COc1cc(-c2nnc(NC(=O)c3ccc(S(=O)(=O)N4CCOCC4)cc3)o2)cc(OC)c1OC | inconclusive: 4.43% [at 9.22 µM] | –
Cc1ccc(NC(=O)C(C)Sc2nc3nc(C)cc(C)n3n2)cc1 (stereo not drawn) | inconclusive: -21.3% | –
COCCn1nnnc1C(c1ccccn1)N1CCN(c2cccc(C)c2C)CC1 (stereo not drawn) | inactive | –
Cc1n[nH]c(=O)c2c(NC(=O)COC(=O)COc3cccc(Br)c3)oc(C)c12 | – | inconclusive: 23.1 µM [activator, partial curve, poor fit]
COc1ccc(S(=O)(=O)N2C3CCC2CC(NC(=O)C2CC2)C3)cc1 (stereo not drawn) | inconclusive: 6.66% | –
c1ccc2nc3ccccc3nc2c1 | inconclusive: -4.39% | –
CC(=O)c1ccc(NC(=O)c2noc(C)c2[N+](=O)[O-])cc1 | – | inconclusive: 6.51 µM [activator, partial curve]
CN(C)c1ccc(C(=O)NCCCSc2ccccc2)cc1 | inconclusive: 15.4% | –
COCCCNC(=O)CSc1ccsc1[N+](=O)[O-] | inconclusive: -19.6% [at 9.22 µM] | –
O=C(CCN1C(=O)C2C3CCC(C3)C2C1=O)Nc1ccc(Cl)cc1Cl (stereo not drawn) | inconclusive: -11.2% | –
COc1ccc(S(=O)(=O)NCC(=O)N(Cc2ccco2)C(C(=O)NC(C)(C)C)C(C)C)cc1 (stereo not drawn) | inconclusive: 261% | –
CN(Cc1ccc(Br)cc1)CC(O)COc1cccc(Br)c1 (stereo not drawn) | – | inconclusive: 29.1 µM [falling, partial curve, poor fit]
Cc1nn(CC(=O)N(C)C2(C#N)CCCCC2)c(C)c1[N+](=O)[O-] | inconclusive: -10.1% | –
Cc1ccc(S(=O)(=O)N(C)C)cc1NC(=O)COC(=O)CSc1ccccc1 | – | inconclusive: 6.51 µM [activator, single point]
Cc1nc2c(-c3ccc(F)cc3)c(C)nn2c(C)c1CCC(=O)N1CCC(Cc2ccccc2)CC1 | inconclusive: 55.2% | –
O=C(O)CCN(Cc1ccccc1)S(=O)(=O)c1ccc(Cl)cc1F | inconclusive: -68.9% | –
Cc1ccc(S(=O)(=O)Oc2ccc(/C=C(/NC(=O)c3ccccc3)C(=O)NCCC(=O)O)cc2)cc1 | inconclusive: -17.8% | –
COc1ccc(NS(=O)(=O)c2cc(NC(=O)C3CCCO3)ccc2N2CCCCC2)cc1 (stereo not drawn) | – | inconclusive: 0.0731 µM [cytotoxic, full curve, poor fit]
CCOc1ccc(C(=O)NCC(c2cccs2)N(C)C)cc1 (stereo not drawn) | inconclusive: 17.4% | –
CCOc1cc2[nH]c(=O)n(CCCN3CCCC3=O)c(=O)c2cc1OCC | inconclusive: 14.5% | –
C=CCSc1nc(N)c(C#N)c(-c2ccccc2)c1C#N | – | inconclusive: 0.146 µM [activator, full curve, poor fit]
O=C(Nc1ccccc1N1CCOCC1)c1ccc(OCc2cscn2)cc1 | inconclusive: -100% | –
